# Experimental data reported in PubChem BioAssay (NCATS).
# The inconclusive results got no clear call from the source; some entries with a clear call stand among them for comparison. Potencies of inconclusive entries are doubtful fits and often do not repeat. Active and inactive are the calls of the source. Calls follow the shape of the dose curve; as a rule, active = well fitted cell-killing curve with a large enough effect; inconclusive = small, poorly fitted or top-dose-only effect, or effect the other way; inactive = no such curve, though single readings can be large or run the other way.
# Assay: Quantitative highthroughput screen to assess conditional lethalithy of SEM cells grown in Human Plasma-Like Medium with dialyzed fetal bovine serum (HPLM+ds) (AID 1963882); also: nearly all actives have a fitted effect of over 35% in size
# Settings: SEM B-ALL cells in HPLM+ds, CellTiter-Glo viability, 48 h; series mostly up to 45.8 µM; viability: at the top concentration
# Description: Assay Provider: Jason Cantor Ph.D.
# Department of Biochemistry
# University of Wisconsin-Madison, Madison, WI, USA
# Chemical screening studies have identified drug sensitivities across hundreds of cancer cell lines but most putative therapeutics fail to translate. Discovery and development of drug candidates in models that more accurately reflect nutrient levels in human blood is a major challenge. Here we performed high-throughput screens in conventional versus Human Plasma-Like Medium (HPLM) to identify compounds that were "missed" when screening using the artificial culture condition. Sets of conditional anticancer compounds spanned phases of clinical development and included non-oncology drugs were assessed. […] We also traced conditional phenotypes for several chemotherapeutics to availability of HPLM-specific metabolites and confirmed others for compounds whose reported targets are encoded by nonessential genes. Our findings establish generalizable strategies for exploiting conditional lethality in HPLM to reveal therapeutic candidates and mechanisms of action in cancer cells.
# Described herein are the results of each viability screens against three cell lines: NOMO1 (an acute myeloid leukemia cell line); P12-Ichikawa (a T-cell acute lymphoblastic leukemia); and SEM (a B-cell ALL). Each assay was screened using 3 different cell culture media: homemade human plasma-Like medium with 10% dialyzed fetal bovine serum (HPLM+ds); RPMI1640 with 10% untreated FBS and 5mM glucose (RPMI+s); and RPMI1640 with 10% dialyzed fetal bovine serum and 5 mM glucose (RPMI+ds).
# PROTOCOL TABLE (as described by Inglese J, Shamu CE and Guy RK. 2007)
# SEQUENCE No. (e.g., 1, 2, 3, etc.); […] (e.g., Cells, Incubation, Reagent, etc.); VALUE and DESCRIPTION.
# 1; Cells; 5 uL; white, solid bottom 1536-well Greiner assay plate.
# 2; Compounds; 23 nL; Kalypsis pin tool (Wako USA) equipped with a 1536-well pin head to transfer to the assay plates.
# 3; Incubation; 48 hours; 37C incubation.
# 4; Reagent; 3 uL; CellTiter Glo (Promega).
# 5; Incubation; 5 min, room temperature
# 6; Detection; Luminescence, Viewlux PerkinElmer.
# NOTES (numbers refer to Sequence numbers above)
# 1. Briefly, 5 ul of cell reagent was dispensed using a Multidrop Combi Dispenser. The NOMO1 and SEM cells were plated at 500 cells/well and the P12-Ichikawa line at 1000 cells/well.
# 2. After seeding the cells, 23 nL of MIPE 4.1 library compounds (in DMSO) were added to each plate using a Kalypsys 1536 Pintool dispenser. Bortezomib at final concentration of […] and DMSO were added to each plate as positive and negative controls respectively. For each screen, MIPE 4.1 compounds were added over an eleven-point concentration range […] in 3-fold dilutions.
# 3. Each plate was covered with a stainless steel gasketed lid to prevent evaporation and incubated for 48 hour at 37C, 95% relative humidity, and 5% CO2.
# 4-5. Three microliter CellTilter-GloTM luminescent substrate mix (Promega) reagent was added to the assay plate and incubated at room temperature for 5 min.
# 6. The luminescence signal was measured using a ViewLux (PerkinElmer) multiplate reader with a 2 second exposure time per plate. Data for each compound were normalized as percent viability such that measurements for DMSO and the empty well controls in each plate were defined as 100% and 0%, respectively.
# Potency is read from the fitted curve at half-maximal effect.
Structure (SMILES),Potency,viability
COc1cc([C@@H]2c3cc4c(cc3[C@H](O)[C@H]3COC(=O)[C@H]23)OCO4)cc(OC)c1OC,active: 0.0026 µM,–
CN1C(=O)C[C@H](C(=O)N[C@@H](Cc2cnc[nH]2)C(=O)N2CCC[C@@H]2C(N)=O)NC1=O,"inconclusive: 18.7 µM [cytotoxic, partial curve, poor fit]",–
O=C(NC[C@H](O)CO)c1ccncc1Nc1ccc(I)cc1F,"inconclusive: 4.69 µM [cytotoxic, partial curve, poor fit]",–
CCCC(CCC)C(=O)O,–,inactive: 89.6%
CCCCN1CCC(CNC(=O)c2c3n(c4ccccc24)CCCO3)CC1,"inconclusive: 18.7 µM [cytotoxic, partial curve, poor fit]",–
CN(Cc1cc(Br)cc(Br)c1N)C1CCCCC1,–,inactive: 83.3%
NNC(=O)c1ccncc1,–,inactive: 86.3%
CCCCCN=C(N)NN=Cc1c[nH]c2ccc(OC)cc12,"inconclusive: 9.35 µM [cytotoxic, full curve]",–
NC(=O)c1c(OCc2c(F)cc(Br)cc2F)nsc1NC(=O)NCCCCN1CCCC1,"inconclusive: 7.43 µM [cytotoxic, full curve]",–
C[C@@]12C(=O)OC(=O)[C@@]1(C)C1CCC2O1,active: 8.33 µM,–
O=C(C=CC=Cc1ccc2c(c1)OCO2)N1CCCCC1,–,inactive: 71.6%
CCN(CC)CC#CCOC(=O)C(O)(c1ccccc1)C1CCCCC1 (stereo not given),–,inactive: 86.5%
COc1cc(NC(=O)c2ccc(-c3ccc(Cl)cc3)o2)cc(OC)c1,–,inactive: 104%
CN1CCN(CCCN2c3ccccc3Sc3ccc(Cl)cc32)CC1,"inconclusive: 41.8 µM [cytotoxic, single point]",–
Nc1ccn(C[C@@H](CO)OCP(=O)(O)O)c(=O)n1,–,inactive: 91.9% [at 23.2 µM]
CCCCCN(C)CCC(O)(P(=O)(O)O)P(=O)(O)O,"inconclusive: 0.526 µM [rising, partial curve, poor fit]",–
COc1nc(C)nc(Cl)c1NC1=NCCN1,–,inactive: 102%
COc1ccc(CCN(C)CCCOc2ccc(S(=O)(=O)c3[nH]c4ccccc4c3C(C)C)cc2)cc1OC,"inconclusive: 37.2 µM [cytotoxic, single point]",–
COc1cc(=C2C=c3ccccc3=N2)[nH]c1=Cc1[nH]c(C)cc1C,"inconclusive: 20.9 µM [cytotoxic, partial curve, poor fit]",–
COC(=O)Nc1ccc(-c2nc(N3CCOCC3)c3cnn(C4CCN(C(=O)OC)CC4)c3n2)cc1,"inconclusive: 1.32 µM [cytotoxic, full curve]",–

Structure (SMILES),Potency,viability
O=C(Nc1cccc(Cl)c1)Nc1ncc(CCNc2ncnc3ccsc23)s1,"inconclusive: 0.296 µM [cytotoxic, full curve]",–
CCNC(=O)c1cc2c(-c3cc(OCCN4CCCC4)c(Cl)cc3Cl)nc(N)nc2s1,active: 2.96 µM,–
CCC(C)(C)c1ccc(CC(C)CN2C[C@@H](C)O[C@@H](C)C2)cc1 (stereo not given in full),–,inactive: 94.4%
Cc1csc(NC(=O)c2sc3nc4c(c(C(F)(F)F)c3c2N)CCC4)n1,–,inactive: 114%
OCCNC1CCCc2c1[nH]c1ccc(-c3ccccc3)cc21 (stereo not given),"inconclusive: 18.7 µM [cytotoxic, partial curve]",–
O=S(=O)(N=Cc1c(O)ccc2ccccc12)c1cccs1,"inconclusive: 11.8 µM [cytotoxic, partial curve, poor fit]",–
CS(=O)(=O)c1ccc(-c2cnc(N)c(C(=O)Nc3ccccc3)n2)cc1,active: 8.33 µM,–
NC(=O)c1cccnc1,active: 16.6 µM,–
CC(C)(C)NC(=O)[C@H]1CN(Cc2cccnc2)CCN1C[C@@H](O)C[C@@H](Cc1ccccc1)C(=O)N[C@H]1c2ccccc2C[C@H]1O,–,inactive: 75.5%
CCn1cc(C(=O)O)c(=O)c2ccc(C)nc21,–,inactive: 108%
COc1c(N2CCNC(C)C2)c(F)cc2c(=O)c(C(=O)O)cn(C3CC3)c12 (stereo not given),active: 0.743 µM,–
CC1=C(C(=O)Nc2cc3cn[nH]c3cc2F)C(c2ccc(C(F)(F)F)cc2)CC(=O)N1 (stereo not given),"inconclusive: 10.5 µM [cytotoxic, full curve]",–
Cn1ccc2cc3c(cc21)CCN3C(=O)Nc1cccnc1,"inconclusive: 37.2 µM [cytotoxic, single point]",–
COc1nccc(-c2c(-c3ccc(F)cc3)ncn2C2CCC(O)CC2)n1 (stereo not given),"inconclusive: 37.2 µM [cytotoxic, single point]",–
Cn1cc(C=C2C(=O)Nc3cccnc32)c2ccccc21,"inconclusive: 11.8 µM [cytotoxic, full curve]",–
OC[C@H]1O[C@@H](O[C@H]2[C@@H](O)[C@@](O)(CO)O[C@@H]2CO)[C@H](O)[C@@H](O)[C@@H]1O,"inconclusive: 11.8 µM [cytotoxic, single point]",–
CC[C@@]1(O)C[C@H](O[C@H]2C[C@H](N(C)C)[C@H](O[C@H]3C[C@H](O)[C@H](O[C@H]4CCC(=O)[C@H](C)O4)[C@H](C)O3)[C@H](C)O2)c2c(cc3c(c2O)C(=O)c2c(O)cccc2C3=O)[C@@H]1C(=O)OC,"inconclusive: 0.118 µM [cytotoxic, full curve]",–
COC(=O)Nc1nc2ccc(C(=O)c3ccc(F)cc3)cc2[nH]1,"inconclusive: 0.372 µM [cytotoxic, full curve]",–
O=C1CCc2ccc(OCCCCN3CCN(c4cccc(Cl)c4Cl)CC3)cc2N1,–,inactive: 106%

# A second format for some results above:
Structure (SMILES)	Potency	viability
O=S(=O)(N=Cc1c(O)ccc2ccccc12)c1cccs1	inconclusive: 11.8 µM [cytotoxic, partial curve, poor fit]	–
OC[C@H]1O[C@@H](O[C@H]2[C@@H](O)[C@@](O)(CO)O[C@@H]2CO)[C@H](O)[C@@H](O)[C@@H]1O	inconclusive: 11.8 µM [cytotoxic, single point]	–
